These results are taken from US9884125B2 (Merck Sharp & Dohme Corp., priority 2013, dated 2018).

This data set in a line: peptide synthesis. The conditions noted are these: conjugation step.

As for “N^εB29-6-((((2-oxo-2-((α-D-mannopyranosyl-(1→3)-[α-D-mannopyranosyl-(1→6)]-α-D-mannopyranosyl)-2-oxyethyl)amino) (2-oxo-2-((α-L-fucopyranosyloxy)-2-oxoethyl)amino)ethyl)amino)acetamido)-6-oxohexanoyl Human Insulin (IOC-58)”, the conjugation yield stood at 51%.
